Data from US20030224485A1, “Expression system for ABC transporters” (priority 2002, published 2003).
These are yes or no findings as the source states them, for the method shown. Binding seen in cells or lysates may run through a third protein. Some results given as binding are weak or reduced against the parent protein; the word gives no strength.

Biological target: T1, tryptic C-half of native bovine ABCR (bovine) (UniProt F1MWM0)
T1 sequence (looked up): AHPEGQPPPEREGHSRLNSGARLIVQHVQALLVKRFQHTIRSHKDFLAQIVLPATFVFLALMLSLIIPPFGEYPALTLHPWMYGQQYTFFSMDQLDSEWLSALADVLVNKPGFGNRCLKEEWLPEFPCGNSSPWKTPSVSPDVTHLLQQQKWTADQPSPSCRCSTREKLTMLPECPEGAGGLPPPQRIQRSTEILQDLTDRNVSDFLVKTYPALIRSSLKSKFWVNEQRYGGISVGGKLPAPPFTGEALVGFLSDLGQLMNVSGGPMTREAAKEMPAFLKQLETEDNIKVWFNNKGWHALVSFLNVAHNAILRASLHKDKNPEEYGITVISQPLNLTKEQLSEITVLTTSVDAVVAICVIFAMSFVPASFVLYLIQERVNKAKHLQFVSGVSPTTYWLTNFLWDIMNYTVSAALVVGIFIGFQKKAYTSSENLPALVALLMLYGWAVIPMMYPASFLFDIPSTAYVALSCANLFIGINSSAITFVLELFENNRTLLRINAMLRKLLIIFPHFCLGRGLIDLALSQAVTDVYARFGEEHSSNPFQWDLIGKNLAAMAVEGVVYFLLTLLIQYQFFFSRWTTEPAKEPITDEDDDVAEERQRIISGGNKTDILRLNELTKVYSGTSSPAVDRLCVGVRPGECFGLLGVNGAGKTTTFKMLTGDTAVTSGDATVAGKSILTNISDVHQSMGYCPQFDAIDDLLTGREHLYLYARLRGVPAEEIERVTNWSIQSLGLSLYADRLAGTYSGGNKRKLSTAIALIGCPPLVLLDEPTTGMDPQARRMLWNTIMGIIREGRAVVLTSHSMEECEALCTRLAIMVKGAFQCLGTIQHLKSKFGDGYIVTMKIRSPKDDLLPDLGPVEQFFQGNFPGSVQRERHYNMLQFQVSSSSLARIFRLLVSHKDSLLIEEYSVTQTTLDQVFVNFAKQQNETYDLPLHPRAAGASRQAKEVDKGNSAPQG
Test: co-purification of tryptic halves on Rim3F4-Sepharose, Western blot

B1: tryptic N-half of native bovine ABCR (protein, UniProt F1MWM0 1-1325, looked up)
chain: MGFARQIKLLLWKNWTLRKRQKIRFVVELVWPLSLFLVLIWLRNVNPLYSKHECHFPNKAMPSAGMLPWLQGIFCNVNNPCFQSPTAGESPGIVSNYNNSILARVYRDFQELLMDAPESQHLGQVWRELRTLSQLMNTLRMHPERIAGRGIRIREVLKDDEMLTLFLVKNIGLSDSVVYLLVNSQVRPEQFARGVPDLMLKDIACSEALLERFLIFPQRRAAQTVRGSLCSLSQGTLQWMEDTLYANVDFFKLFHVFPRLLDSRSQGMNLRSWGRILSDMSPRIQEFIHRPSVQDLLWVTRPLVQTGGPETFTQLMGILSDLLCGYPEGGGSRVFSFNWYEDNNYKAFLGIDSTRKDPIYSYDERTTTFCNALIQSLESNPLTKIAWRAAKPLLMGKILFTPDSPATRRILKNANSTFEELERVRKLVKVWEEVGPQIWYFFDKSTQMSMIRDTLENPTVKAFWNRQLGEEGITAEAVLNFLYNGPREGQADDVDNFNWRDIFNITDRALRLANQYLECLILDKFESYDDEFQLTQRALSLLEENRFWAGVVFPDMHPWTSSLPPHVKYKIRMDIDVVEKTNKIKDRYWDSGPRADPVEDFRYIWGGFAYLQDMVEHGITRSQAQEEVPVGIYLQQMPYPCFVDDSFMIILNRCFPIFMVLAWIYSVSMTVKSIVLEKELRLKETLKNQGVSNRVIWCTWFLDSFSIMSMSICLLTIFIMHGRILHYSNPFILFLFLLAFSIATIMQCFLLSTFFSRASLAAACSGVIYFTLYLPHILCFAWQDRITADMKMAVSLLSPVAFGFGTEYLARFEEQGVGLQWSNIGNSPMEGDEFSFLMSMKMMLLDAALYGLLAWYLDQVFPGDYGTPLPWYFLLQESYWLGGEGCSTREERALEKTEPITEEMEDPEYPEGINDCFFERELPGLVPGVCVKNLVKIFEPYGRPAVDRLNITFYESQITAFLGHNGAGKTTTLSIMTGLLPPTSGTVLVGGKDIETNLDAIRQSLGMCPQHNILFHHLTVAEHILFYAQLKGRSWDKAQLEMEAMLEDTGLHHKRNEEAQDLSGGVQRKLSVAIAFVGDAKVVVLDEPTSGVDPYSRRSIWDLLLKYRSGRTIIMSTHHMDEADILGDRIAIISQGRLYCSGTPLFLKNCFGTGFYLTLVRRMKTIQSQGRGREATCSCASKGFSVRCPACAEAITPEQVLDGDVNELTDMVHHHVPEAKLVECIGQELIFLLPNKNFKQRAYASLFRELEETLADLGLSSFGISDTPLEEIFLKVTEDLDSGHLFAGGTQQKRENINLRHPCSGPSEKAGQTPQGSSSHPREPA
binding: binds
